Test results as given in paper PMC8422350.
These are yes or no findings as the source states them, for the method shown. In cells and extracts the contact can be indirect. A yes stands for co-enrichment or nearness to the bait. Other partners may have been found. A no says only that the protein was not detected with the bait.

By UniProt entry, the sequences of proteins in these tests, tags left out.
UniProt Q99JF8: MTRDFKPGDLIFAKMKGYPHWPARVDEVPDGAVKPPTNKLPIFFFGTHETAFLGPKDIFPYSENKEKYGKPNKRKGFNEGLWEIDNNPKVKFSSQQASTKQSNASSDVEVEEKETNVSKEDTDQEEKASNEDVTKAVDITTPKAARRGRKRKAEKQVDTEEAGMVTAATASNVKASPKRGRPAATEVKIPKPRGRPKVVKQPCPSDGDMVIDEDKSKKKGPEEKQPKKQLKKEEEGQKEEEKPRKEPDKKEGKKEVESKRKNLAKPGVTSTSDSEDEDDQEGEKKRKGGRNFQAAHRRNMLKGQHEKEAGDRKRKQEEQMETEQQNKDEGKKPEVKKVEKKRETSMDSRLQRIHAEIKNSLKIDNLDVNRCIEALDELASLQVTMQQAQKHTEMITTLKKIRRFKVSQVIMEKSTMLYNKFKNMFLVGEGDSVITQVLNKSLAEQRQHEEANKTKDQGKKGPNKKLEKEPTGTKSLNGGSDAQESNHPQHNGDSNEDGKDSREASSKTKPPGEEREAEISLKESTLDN
UniProt O08550: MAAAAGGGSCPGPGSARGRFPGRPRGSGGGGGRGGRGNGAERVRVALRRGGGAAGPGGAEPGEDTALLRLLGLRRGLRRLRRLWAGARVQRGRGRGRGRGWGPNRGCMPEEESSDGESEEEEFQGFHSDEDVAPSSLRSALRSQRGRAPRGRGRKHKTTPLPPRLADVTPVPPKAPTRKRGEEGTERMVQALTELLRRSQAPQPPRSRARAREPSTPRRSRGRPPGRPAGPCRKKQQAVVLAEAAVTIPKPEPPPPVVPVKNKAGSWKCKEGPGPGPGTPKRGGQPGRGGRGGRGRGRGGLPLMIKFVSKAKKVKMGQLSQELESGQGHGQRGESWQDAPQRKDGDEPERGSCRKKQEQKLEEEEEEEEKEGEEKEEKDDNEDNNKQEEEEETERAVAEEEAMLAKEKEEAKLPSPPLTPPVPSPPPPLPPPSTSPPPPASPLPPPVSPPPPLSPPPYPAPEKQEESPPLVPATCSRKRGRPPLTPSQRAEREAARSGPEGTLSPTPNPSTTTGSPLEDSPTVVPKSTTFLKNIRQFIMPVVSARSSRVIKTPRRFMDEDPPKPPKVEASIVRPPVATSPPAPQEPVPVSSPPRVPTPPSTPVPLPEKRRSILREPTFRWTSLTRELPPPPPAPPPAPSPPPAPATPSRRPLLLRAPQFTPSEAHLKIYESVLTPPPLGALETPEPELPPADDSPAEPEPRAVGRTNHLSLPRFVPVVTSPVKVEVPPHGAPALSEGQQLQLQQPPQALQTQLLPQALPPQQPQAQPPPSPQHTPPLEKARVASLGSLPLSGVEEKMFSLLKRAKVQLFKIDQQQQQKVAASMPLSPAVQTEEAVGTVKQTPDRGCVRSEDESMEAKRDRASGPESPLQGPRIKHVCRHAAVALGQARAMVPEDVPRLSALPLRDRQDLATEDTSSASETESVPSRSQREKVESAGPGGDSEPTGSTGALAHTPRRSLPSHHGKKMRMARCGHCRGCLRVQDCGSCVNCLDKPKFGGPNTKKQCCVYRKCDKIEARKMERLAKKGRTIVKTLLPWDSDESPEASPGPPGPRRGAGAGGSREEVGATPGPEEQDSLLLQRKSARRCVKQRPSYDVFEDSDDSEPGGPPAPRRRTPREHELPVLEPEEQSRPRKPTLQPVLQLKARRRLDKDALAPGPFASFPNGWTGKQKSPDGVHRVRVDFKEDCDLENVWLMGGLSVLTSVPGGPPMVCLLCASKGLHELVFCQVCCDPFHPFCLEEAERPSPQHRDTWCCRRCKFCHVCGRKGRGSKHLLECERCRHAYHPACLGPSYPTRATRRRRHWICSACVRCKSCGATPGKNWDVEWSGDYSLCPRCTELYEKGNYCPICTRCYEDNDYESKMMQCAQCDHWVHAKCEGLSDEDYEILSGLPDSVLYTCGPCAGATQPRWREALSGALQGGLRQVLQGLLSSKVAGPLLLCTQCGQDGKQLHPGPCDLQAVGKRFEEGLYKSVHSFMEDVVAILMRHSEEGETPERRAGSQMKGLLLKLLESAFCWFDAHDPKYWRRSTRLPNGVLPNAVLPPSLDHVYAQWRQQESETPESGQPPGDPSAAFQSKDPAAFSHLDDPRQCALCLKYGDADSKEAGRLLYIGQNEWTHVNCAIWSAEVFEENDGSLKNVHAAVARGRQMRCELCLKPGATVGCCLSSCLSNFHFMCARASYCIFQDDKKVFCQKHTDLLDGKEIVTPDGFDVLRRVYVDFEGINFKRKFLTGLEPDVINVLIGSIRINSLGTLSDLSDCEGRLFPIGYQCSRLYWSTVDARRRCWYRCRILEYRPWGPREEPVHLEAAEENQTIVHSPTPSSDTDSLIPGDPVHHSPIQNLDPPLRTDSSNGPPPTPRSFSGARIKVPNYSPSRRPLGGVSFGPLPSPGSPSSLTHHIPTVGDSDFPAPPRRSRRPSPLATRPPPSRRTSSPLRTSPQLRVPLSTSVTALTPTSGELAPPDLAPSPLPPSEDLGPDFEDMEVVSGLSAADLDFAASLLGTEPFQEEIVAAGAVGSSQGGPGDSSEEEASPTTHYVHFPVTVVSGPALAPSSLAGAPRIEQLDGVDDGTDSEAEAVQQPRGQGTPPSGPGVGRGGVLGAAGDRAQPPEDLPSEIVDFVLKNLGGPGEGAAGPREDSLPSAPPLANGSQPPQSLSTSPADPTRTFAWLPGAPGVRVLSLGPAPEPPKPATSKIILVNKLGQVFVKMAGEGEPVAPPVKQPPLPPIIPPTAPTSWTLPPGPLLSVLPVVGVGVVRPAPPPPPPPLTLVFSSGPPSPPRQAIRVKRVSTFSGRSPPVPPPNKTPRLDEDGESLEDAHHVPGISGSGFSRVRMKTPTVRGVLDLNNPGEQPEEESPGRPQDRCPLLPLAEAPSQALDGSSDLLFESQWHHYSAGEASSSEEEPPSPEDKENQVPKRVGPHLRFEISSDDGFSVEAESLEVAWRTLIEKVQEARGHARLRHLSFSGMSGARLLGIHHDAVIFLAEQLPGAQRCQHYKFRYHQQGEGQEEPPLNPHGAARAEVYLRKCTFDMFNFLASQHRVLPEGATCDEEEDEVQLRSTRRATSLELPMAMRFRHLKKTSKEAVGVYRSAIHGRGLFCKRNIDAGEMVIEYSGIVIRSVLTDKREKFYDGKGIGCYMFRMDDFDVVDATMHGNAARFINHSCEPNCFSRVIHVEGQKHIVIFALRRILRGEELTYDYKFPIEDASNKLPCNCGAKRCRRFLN
UniProt P11103: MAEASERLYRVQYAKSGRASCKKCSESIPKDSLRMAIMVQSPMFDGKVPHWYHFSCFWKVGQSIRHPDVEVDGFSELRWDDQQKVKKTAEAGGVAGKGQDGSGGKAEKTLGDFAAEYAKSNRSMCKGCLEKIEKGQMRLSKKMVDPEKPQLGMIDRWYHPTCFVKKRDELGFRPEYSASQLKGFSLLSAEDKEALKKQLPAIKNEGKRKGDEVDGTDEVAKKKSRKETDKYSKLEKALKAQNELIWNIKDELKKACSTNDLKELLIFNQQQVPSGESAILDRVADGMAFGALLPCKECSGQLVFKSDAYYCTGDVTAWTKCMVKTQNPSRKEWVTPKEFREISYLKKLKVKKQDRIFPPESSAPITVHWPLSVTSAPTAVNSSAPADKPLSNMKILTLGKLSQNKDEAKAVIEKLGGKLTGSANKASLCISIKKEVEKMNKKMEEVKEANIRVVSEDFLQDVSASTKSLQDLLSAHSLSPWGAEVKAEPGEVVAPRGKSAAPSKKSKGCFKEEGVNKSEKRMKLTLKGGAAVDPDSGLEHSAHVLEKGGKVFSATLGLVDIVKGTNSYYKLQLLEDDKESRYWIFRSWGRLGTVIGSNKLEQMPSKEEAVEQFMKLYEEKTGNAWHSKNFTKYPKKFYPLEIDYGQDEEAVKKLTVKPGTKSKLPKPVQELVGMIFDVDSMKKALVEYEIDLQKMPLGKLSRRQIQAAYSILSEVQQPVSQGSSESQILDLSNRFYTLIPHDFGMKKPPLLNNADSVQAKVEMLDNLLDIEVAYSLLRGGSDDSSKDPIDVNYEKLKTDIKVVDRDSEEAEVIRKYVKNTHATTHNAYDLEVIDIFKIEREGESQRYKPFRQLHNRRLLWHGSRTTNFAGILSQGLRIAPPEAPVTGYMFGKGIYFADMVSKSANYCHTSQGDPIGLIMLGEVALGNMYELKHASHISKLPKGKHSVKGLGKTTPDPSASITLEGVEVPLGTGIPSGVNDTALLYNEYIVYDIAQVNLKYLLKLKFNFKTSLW
UniProt O88559: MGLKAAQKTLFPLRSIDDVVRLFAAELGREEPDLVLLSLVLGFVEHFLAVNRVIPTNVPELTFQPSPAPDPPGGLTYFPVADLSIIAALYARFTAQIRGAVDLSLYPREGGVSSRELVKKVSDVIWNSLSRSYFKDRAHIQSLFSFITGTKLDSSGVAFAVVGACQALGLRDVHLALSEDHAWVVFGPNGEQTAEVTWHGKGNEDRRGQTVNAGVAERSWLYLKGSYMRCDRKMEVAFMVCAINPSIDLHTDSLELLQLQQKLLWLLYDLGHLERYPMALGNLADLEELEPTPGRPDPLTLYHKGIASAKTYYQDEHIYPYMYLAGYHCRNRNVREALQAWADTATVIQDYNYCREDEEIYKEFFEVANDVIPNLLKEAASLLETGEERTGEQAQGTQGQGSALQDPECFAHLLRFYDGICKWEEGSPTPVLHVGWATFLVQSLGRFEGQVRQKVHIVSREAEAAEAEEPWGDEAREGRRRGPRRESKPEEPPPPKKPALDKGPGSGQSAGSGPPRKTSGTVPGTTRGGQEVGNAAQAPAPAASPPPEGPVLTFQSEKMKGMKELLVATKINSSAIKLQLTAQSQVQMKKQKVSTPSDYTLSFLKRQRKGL
UniProt Q80YR6: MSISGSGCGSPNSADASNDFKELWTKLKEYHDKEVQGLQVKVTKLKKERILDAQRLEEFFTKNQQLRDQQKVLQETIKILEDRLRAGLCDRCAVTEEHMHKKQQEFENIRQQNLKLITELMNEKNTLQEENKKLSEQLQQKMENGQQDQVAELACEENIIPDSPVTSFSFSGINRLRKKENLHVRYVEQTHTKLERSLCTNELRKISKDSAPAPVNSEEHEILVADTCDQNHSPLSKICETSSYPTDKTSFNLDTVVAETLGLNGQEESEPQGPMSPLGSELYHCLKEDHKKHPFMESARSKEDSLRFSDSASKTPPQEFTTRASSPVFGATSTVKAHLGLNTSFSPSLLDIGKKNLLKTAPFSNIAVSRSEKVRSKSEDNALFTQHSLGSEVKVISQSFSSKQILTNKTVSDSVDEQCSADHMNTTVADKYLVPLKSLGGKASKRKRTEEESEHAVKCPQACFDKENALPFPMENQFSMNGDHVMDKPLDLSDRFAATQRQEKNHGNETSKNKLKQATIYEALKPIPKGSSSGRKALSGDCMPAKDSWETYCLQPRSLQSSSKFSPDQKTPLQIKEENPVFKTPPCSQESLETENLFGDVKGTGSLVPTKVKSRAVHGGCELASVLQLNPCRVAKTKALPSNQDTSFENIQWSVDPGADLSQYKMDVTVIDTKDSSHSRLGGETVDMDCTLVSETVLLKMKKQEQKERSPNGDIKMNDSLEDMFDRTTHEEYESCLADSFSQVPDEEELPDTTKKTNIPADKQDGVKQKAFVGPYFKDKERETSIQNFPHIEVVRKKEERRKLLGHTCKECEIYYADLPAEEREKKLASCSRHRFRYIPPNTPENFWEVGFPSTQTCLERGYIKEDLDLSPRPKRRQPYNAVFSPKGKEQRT

What was measured:
[1] = target: PC4 and SF2 interacting protein (PSIP1/LEDGF), longer isoform p75, endogenous (mouse (endogenous in MEFs and mESCs)) (UniProt Q99JF8); assay: affinity purification with mass spectrometry; SILAC-IP-MS in mESCs: nuclear extracts in RIPA buffer with Benzonase; rabbit IgG (R0K0), anti-MOF (R6K4) and anti-PSIP/p75 (R10K8) on Protein A Dynabeads, 4°C 30 min, beads combined after the first wash; ratio over IgG
[2] = target: PC4 and SF2 interacting protein (PSIP1/LEDGF), longer isoform p75, endogenous (mouse (endogenous in MEFs and mESCs)) (UniProt Q99JF8); assay: affinity purification with mass spectrometry; SILAC-IP-MS in MEFs: nuclear extracts in RIPA buffer with Benzonase; rabbit IgG (R0K0), anti-MOF (R6K4) and anti-PSIP/p75 (R10K8) on Protein A Dynabeads, 4°C 30 min, beads combined after the first wash; ratio over IgG

Substance | binding [1] | binding [2]
MLL2 (from UniProt O08550 1-2713) | no binding | no binding
PARP1 (from UniProt P11103 1-1013) | binds | binds
Menin (from UniProt O88559 1-611) | no binding | no binding
C-terminal binding protein interacting protein (CtIP) (from UniProt Q80YR6 1-893) | no binding | no binding
